Reference: PubChem BioAssay AID2685 (National Center for Advancing Translational Sciences (NCATS), 2010)
Some of the results follow. These are further read-outs of the screen, such as a control signal, another cell line or another target. No call is given for them. The list favours compounds with an active or inconclusive main result. Potencies come from curve fits of mixed quality, noted in brackets.

Experiment: qHTS Assay for Lipid Storage Modulators in Drosophila S3 Cells;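 as to cell number change: cells counted by Cell Tracker Red CMTPX staining in the red channel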
Settings: BODIPY lipid droplet fluorescence, 18-24 h; for cell number change: measured here: cell count max response, cells fed with added oleic acid
How it was run: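 Drosophila S3 cells loaded with oleic acid (400 uM, as added) and compounds at several concentrations; lipid droplets imaged by 488-nm laser-scanning cytometry, 500–530 nm intensity and object ratio to cell channel. Percent activity normalized to 20 uM Triacsin C.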

[1] = measured here: lipid fluorescence (Fed channel) AC50, cells fed with added oleic acid
[2] = measured here: cell number channel AC50, cells fed with added oleic acid

Compound	AC50 [1]	cell number change	AC50 [2]
COc1ccccc1-[n+]1c(C)cc(/C=C2\Sc3ccccc3N2C)cc1C	0.411 µM [falling, partial curve]	–	–
O=C(NC(O)C(=O)c1ccccc1)c1cccs1 (stereo unspecified)	4.11 µM [falling, full curve]	-54.3%	4.61 µM [falling, full curve]
CCN(CC)CCNC(=O)c1ccc(NC(=O)c2c(C)nn(-c3ccc(F)cc3)c2Cl)cc1	29.1 µM [rising, single point]	-7.14%	–
Cc1ccc(S(=O)(=O)c2cc3c(=O)n4cccc(C)c4nc3n(C3CCCCC3)c2=N)cc1	–	34.2%	0.92 µM [rising, full curve]
CCOC(=O)c1ccccc1Nc1cn(C(C)=O)c2ccccc12	3.66 µM [rising, partial curve]	–	–
O=C1CN(C(=O)c2c(F)cccc2F)C(c2ccc(F)cc2)c2cc(Br)ccc2N1 (stereo unspecified)	23.1 µM [falling, single point]	-22.7%	–
CCOc1ccc(OCC(=O)OCC(=O)Nc2ccccc2C#N)cc1	–	-15.7%	–
O=C(CCCCCn1c(SCC(=O)c2ccccc2)nc2ccccc2c1=O)NCc1ccco1	–	-42.3%	29.1 µM [falling, single point]
Cc1nnc(NC(=O)c2nc(S(=O)(=O)Cc3ccccc3)ncc2Cl)s1	–	7.59%	–
COc1cccc(-c2nn(C)c3sc(C(=O)NCc4ccc5c(c4)OCO5)cc23)c1	–	14.4%	–
O=C(c1cc(COc2cccc(C(F)(F)F)c2)on1)N1CCC(c2ccncc2)CC1	0.651 µM [falling, full curve, poor fit]	-15.7%	–
O=c1c2ccccc2n(Cc2ccc(F)cc2)c(=O)n1C1CCCC1	6.51 µM [rising, full curve]	87.6%	5.17 µM [rising, full curve]
COC(=O)c1cc(NC(=O)c2cc(-c3ccc(Cl)cc3)oc2C(F)(F)F)ccc1N1CCOCC1	32.6 µM [rising, single point]	20.6%	–
COc1cccc(-n2c(N)cc(=O)nc2SCC(=O)N2CCN(c3ccccc3)CC2)c1	–	55.1%	25.9 µM [rising, partial curve, poor fit]
CCCOc1cccc(C(=O)Nc2ccc(Br)cc2F)c1	–	-45%	29.1 µM [falling, single point]
Cc1cc2nc3ccc(=[N+](C)C)cc-3sc2cc1N	5.8 µM [falling, partial curve]	-29.1%	–
CCCCCCc1ccc(N2C[C@H](CCCCC)[C@@H](CC(=O)NCc3ccc(OC)cc3)C2=O)cc1	–	22.5%	–
Cc1cccnc1NC(=O)c1cc2c(=O)oc3ccccc3c2s1	1.64 µM [rising, full curve]	7.56%	–
O=C(NCCc1ccccc1)C(=O)NN=C1CCCC1	20.6 µM [falling, single point]	–	–
CCOc1c(Br)cc(C(=O)NCCCn2ccnc2)cc1OC	6.51 µM [rising, partial curve]	28%	–
COc1ccc(CCNC(=O)CN2C(=O)CSc3ccc(S(=O)(=O)N4CCOCC4)cc32)cc1OC	6.51 µM [rising, partial curve, poor fit]	-16.5%	1.46 µM [rising, partial curve, poor fit]
N#Cc1c(N)nc2c3c(sc(=N)c2c1N)NC(=O)CC3c1ccccc1 (stereo unspecified)	–	-89.3%	29.1 µM [falling, partial curve, poor fit]
N#Cc1cc(C#N)c(SCC(=O)NCC2CCCO2)nc1N (stereo unspecified)	6.51 µM [rising, single point]	-18.1%	–
O=C(NCC1CCCO1)C1CCCN(S(=O)(=O)c2ccc(Br)cc2)C1 (stereo unspecified)	6.51 µM [falling, single point]	13.5%	–
O=C(N1CCOCC1)N1CCN(c2ccc(F)cc2)CC1	0.146 µM [falling, full curve, poor fit]	-65.7%	1.3 µM [falling, full curve]
O=C(O)/C=C\c1ccccc1Oc1cccc(Cl)c1	–	52.8%	–
CC1=CC(C)(C)n2c(O)c(N=N)c3cc(C)cc1c32	6.51 µM [rising, partial curve]	18.8%	6.51 µM [rising, single point]
O=C(Cc1ccccc1Cl)Nc1cccnc1	–	-15.7%	–
COc1cc2c(cc1OC)C(C(=O)NCc1ccco1)C(c1cccs1)N(C)C2=O (stereo unspecified)	–	21%	–
CCC(=O)NC1(C(F)(F)F)C(=O)Nc2c1c(=O)[nH]c(=O)n2Cc1ccco1 (stereo unspecified)	0.0517 µM [rising, full curve, poor fit]	66.1%	5.17 µM [rising, single point]

A second format for part of the listing above:
Compound,AC50 [1],cell number change,AC50 [2]
CCOC(=O)c1ccccc1Nc1cn(C(C)=O)c2ccccc12,"3.66 µM [rising, partial curve]",–,–
COc1cccc(-c2nn(C)c3sc(C(=O)NCc4ccc5c(c4)OCO5)cc23)c1,–,14.4%,–
COc1ccc(CCNC(=O)CN2C(=O)CSc3ccc(S(=O)(=O)N4CCOCC4)cc32)cc1OC,"6.51 µM [rising, partial curve, poor fit]",-16.5%,"1.46 µM [rising, partial curve, poor fit]"
N#Cc1c(N)nc2c3c(sc(=N)c2c1N)NC(=O)CC3c1ccccc1 (stereo unspecified),–,-89.3%,"29.1 µM [falling, partial curve, poor fit]"
O=C(N1CCOCC1)N1CCN(c2ccc(F)cc2)CC1,"0.146 µM [falling, full curve, poor fit]",-65.7%,"1.3 µM [falling, full curve]"
O=C(Cc1ccccc1Cl)Nc1cccnc1,–,-15.7%,–
CCC(=O)NC1(C(F)(F)F)C(=O)Nc2c1c(=O)[nH]c(=O)n2Cc1ccco1 (stereo unspecified),"0.0517 µM [rising, full curve, poor fit]",66.1%,"5.17 µM [rising, single point]"
